Data on one molecule can be found in paper PMC12083247.

Results are given in words; binding and its absence hold for the method and conditions named. Binding seen in cells or lysates may run through a third protein. For some assays here: A result given as binding can be weak or reduced; the word gives no strength.

Assay [1] addresses CAPN2[C105S]-3xFlag-6xHis in complex with CAPNS1(86–268). As to the kind of experiment: pull-down; substrate trapping: 3xFlag baits (6 μM) on anti-Flag agarose; HCT116 cytosol with 2 mM CaCl2 and E64, 2 h at 4°C; washes TBS + 1 mM CaCl2 + 0.01% Tween-20; immunoblot of elutions; only the target purified. (A western blot detects proteins with antibodies after separation by electrophoresis.)

Assay [2] has the same target. Nature of the assay: pull-down; same substrate trapping; bound proteins eluted with TBS + 5 mM EGTA, then SDS (Laemmli) elution; immunoblot; only the target purified.

B1: annexin A6 (protein, UniProt P08133 1-673)
chain: MAKPAQGAKYRGSIHDFPGFDPNQDAEALYTAMKGFGSDKEAILDIITSRSNRQRQEVCQSYKSLYGKDLIADLKYELTGKFERLIVGLMRPPAYCDAKEIKDAISGIGTDEKCLIEILASRTNEQMHQLVAAYKDAYERDLEADIIGDTSGHFQKMLVVLLQGTREEDDVVSEDLVQQDVQDLYEAGELKWGTDEAQFIYILGNRSKQHLRLVFDEYLKTTGKPIEASIRGELSGDFEKLMLAVVKCIRSTPEYFAERLFKAMKGLGTRDNTLIRIMVSRSELDMLDIREIFRTKYEKSLYSMIKNDTSGEYKKTLLKLSGGDDDAAGQFFPEAAQVAYQMWELSAVARVELKGTVRPANDFNPDADAKALRKAMKGLGTDEDTIIDIITHRSNVQRQQIRQTFKSHFGRDLMTDLKSEISGDLARLILGLMMPPAHYDAKQLKKAMEGAGTDEKALIEILATRTNAEIRAINEAYKEDYHKSLEDALSSDTSGHFRRILISLATGHREEGGENLDQAREDAQVAAEILEIADTPSGDKTSLETRFMTILCTRSYPHLRRVFQEFIKMTNYDVEHTIKKEMSGDVRDAFVAIVQSVKNKPLFFADKLYKSMKGAGTDEKTLTRIMVSRSEIDLLNIRREFIEKYDKSLHQAIEGDTSGDFLKALLALCGGED
Turning to B1, the binding entry in assay [1] is “binds”; in assay [2] it was “no binding (only with 5 mM EGTA)”.
